Reference: PMC5344696
No constants are given. Whether binding was seen depends on the method and setting. For some of these results: Binding seen in cells or lysates may run through a third protein. Some results given as binding are weak or reduced against the parent protein; the word gives no strength. For some of these results: Sequences can lack the tags named with a protein.

The chains behind the UniProt entries cited, without tags or fusion partners.
UniProt Q8IY92: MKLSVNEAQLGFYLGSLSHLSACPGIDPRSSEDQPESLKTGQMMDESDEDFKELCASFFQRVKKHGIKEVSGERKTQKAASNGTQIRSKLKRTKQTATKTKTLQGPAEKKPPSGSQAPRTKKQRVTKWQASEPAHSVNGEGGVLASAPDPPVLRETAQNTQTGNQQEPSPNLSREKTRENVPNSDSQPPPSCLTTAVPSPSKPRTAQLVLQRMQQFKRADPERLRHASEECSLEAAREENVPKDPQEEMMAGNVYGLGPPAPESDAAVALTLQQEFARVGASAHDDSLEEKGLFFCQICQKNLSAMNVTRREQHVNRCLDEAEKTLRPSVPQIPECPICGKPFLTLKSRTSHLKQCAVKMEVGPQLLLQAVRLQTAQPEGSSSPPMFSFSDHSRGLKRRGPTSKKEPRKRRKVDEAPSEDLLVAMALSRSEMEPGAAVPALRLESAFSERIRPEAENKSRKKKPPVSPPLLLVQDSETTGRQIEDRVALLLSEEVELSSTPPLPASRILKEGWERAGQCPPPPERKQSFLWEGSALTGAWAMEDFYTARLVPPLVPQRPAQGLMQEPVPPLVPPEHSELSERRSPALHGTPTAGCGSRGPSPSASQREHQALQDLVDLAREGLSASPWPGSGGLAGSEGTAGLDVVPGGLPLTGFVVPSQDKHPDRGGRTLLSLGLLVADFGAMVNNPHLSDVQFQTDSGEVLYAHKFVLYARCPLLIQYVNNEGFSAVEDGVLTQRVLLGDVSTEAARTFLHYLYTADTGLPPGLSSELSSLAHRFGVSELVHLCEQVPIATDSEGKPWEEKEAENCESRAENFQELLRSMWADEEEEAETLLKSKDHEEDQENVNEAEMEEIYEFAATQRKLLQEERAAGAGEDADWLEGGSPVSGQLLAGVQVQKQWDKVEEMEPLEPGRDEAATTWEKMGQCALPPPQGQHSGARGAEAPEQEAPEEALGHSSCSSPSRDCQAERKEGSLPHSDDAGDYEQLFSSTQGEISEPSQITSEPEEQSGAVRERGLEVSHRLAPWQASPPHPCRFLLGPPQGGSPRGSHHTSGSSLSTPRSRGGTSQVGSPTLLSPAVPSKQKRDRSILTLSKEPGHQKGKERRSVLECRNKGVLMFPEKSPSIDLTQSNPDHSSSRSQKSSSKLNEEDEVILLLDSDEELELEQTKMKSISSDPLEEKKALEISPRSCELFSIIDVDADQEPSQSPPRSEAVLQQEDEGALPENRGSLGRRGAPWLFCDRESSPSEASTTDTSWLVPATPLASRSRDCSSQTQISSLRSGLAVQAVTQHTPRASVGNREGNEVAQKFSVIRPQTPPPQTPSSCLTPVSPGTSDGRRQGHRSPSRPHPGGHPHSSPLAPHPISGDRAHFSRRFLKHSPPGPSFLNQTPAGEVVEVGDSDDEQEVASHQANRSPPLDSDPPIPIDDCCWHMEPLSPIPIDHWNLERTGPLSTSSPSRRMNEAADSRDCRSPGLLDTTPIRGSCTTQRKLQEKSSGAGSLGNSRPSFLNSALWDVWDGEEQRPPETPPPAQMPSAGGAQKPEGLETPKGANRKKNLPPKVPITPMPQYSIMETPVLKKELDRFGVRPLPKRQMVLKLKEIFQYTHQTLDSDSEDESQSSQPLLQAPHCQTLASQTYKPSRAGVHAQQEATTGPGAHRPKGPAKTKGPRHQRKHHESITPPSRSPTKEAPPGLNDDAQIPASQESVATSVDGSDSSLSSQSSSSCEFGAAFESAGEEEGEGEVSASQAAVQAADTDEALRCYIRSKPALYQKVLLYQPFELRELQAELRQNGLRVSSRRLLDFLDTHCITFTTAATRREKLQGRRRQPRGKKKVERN

T1: _(FLAG)EME1 (human) (UniProt Q96AY2)
T1 sequence: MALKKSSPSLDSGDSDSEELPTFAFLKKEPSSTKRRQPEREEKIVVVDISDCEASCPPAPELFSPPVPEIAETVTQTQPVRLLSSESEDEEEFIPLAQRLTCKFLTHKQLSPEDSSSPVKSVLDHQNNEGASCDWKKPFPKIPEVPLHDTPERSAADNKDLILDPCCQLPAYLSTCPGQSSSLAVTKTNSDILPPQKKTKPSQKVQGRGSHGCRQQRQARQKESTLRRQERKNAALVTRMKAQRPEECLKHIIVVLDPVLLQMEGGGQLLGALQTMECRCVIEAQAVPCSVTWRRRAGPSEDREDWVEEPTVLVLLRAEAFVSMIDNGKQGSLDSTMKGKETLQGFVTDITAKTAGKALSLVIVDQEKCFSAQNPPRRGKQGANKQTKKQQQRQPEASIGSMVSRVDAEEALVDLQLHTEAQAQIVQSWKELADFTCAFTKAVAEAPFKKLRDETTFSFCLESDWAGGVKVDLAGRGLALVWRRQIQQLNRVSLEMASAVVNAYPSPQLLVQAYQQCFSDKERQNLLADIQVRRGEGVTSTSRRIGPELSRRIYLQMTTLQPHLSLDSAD

T2: EME1 (human (endogenous in Flp-In T-REx 293)) (UniProt Q96AY2)
T2 sequence: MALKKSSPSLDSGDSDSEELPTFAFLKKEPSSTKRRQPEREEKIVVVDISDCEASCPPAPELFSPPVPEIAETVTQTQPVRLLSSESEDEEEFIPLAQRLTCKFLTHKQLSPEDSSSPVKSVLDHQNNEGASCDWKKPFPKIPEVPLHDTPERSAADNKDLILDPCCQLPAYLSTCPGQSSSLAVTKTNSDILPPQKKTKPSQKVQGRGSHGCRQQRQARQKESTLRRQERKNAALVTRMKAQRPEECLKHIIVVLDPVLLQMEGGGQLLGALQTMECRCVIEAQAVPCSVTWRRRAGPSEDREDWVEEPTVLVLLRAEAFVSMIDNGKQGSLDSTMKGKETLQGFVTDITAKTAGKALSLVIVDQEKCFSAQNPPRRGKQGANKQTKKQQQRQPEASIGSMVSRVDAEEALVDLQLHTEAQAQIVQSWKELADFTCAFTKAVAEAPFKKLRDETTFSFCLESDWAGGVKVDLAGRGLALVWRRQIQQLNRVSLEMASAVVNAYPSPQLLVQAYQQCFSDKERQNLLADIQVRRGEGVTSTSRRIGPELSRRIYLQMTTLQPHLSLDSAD


Legend:
_(STREP)SLX4 (human) [1] = target: _(STREP)SLX4 (human) (UniProt Q8IY92); assay: tandem affinity co-purification; SLX1-SLX4 from Hi5 cells co-infected with V5SLX1_(His6) and _(STREP)SLX4 baculoviruses; StrepTactin Superflow, HisTRAP HP, HiTRAP Q HP; 500 mM NaCl in the affinity steps
_(FLAG)EME1 (human) [2] = target: T1, _(FLAG)EME1 (human); assay: tandem affinity co-purification; SM from Hi5 cells infected with one baculovirus; StrepTactin Superflow, anti-FLAG M2 agarose, HiTRAP SP HP; 500 mM NaCl in the affinity steps
_(STREP)SLX4 (human) [3] = target: _(STREP)SLX4 (human) (UniProt Q8IY92); assay: as above
_(FLAG)SLX4 (human) [4] = target: _(FLAG)SLX4 (human) (UniProt Q8IY92); assay: co-IP + co-sedimentation; _(FLAG)SLX4 precipitated on anti-FLAG M2 agarose from extracts of G2/M-phase cells, eluted with 3x FLAG peptide, then run on a 10%-45% sucrose gradient; fractions blotted
[5] = target: T2, EME1 (human (endogenous in Flp-In T-REx 293)); assay: co-sedimentation; 10%-45% sucrose gradients of whole-cell extracts of Flp-In T-REx 293 cells expressing _(FLAG)SLX4, synchronized at G1/S (double thymidine) or G2/M (thymidine, then nocodazole); SG buffer 25 mM Tris-HCl pH 8.0, 150 mM NaCl, 4°C; fractions blotted
_(FLAG)SLX4 (human) [6] = target: _(FLAG)SLX4 (human) (UniProt Q8IY92); assay: as above
_(FLAG)EME1 (human) [7] = target: T1, _(FLAG)EME1 (human); assay: affinity co-purification; from Hi5 cells infected with baculovirus; anti-FLAG M2 resin, HiTRAP SP HP, HiTRAP Q HP
_(FLAG)EME1 (human) [8] = target: T1, _(FLAG)EME1 (human); assay: three-step affinity co-purification; SMX from Hi5 cells co-infected with SM and XPF-ERCC1 baculoviruses; anti-FLAG M2 agarose, HisTRAP HP, StrepTactin Macroprep; 500 mM NaCl; SDS-PAGE
_(STREP)SLX4 (human) [9] = target: _(STREP)SLX4 (human) (UniProt Q8IY92); assay: as above

binding (_(STREP)SLX4 (human) [1])	binding (_(FLAG)EME1 (human) [2])	binding (_(STREP)SLX4 (human) [3])	binding (_(FLAG)SLX4 (human) [4])	binding [5]	binding (_(FLAG)SLX4 (human) [6])	binding (_(FLAG)EME1 (human) [7])	binding (_(FLAG)EME1 (human) [8])	binding (_(STREP)SLX4 (human) [9])	Binder
binds	–	–	–	–	–	–	–	–	V5SLX1_(His6) (protein, UniProt Q9BQ83 1-275) MGPAGVAARPGRFFGVYLLYCLNPRYRGRVYVGFTVNTARRVQQHNGGRKKGGAWRTSGRGPWEMVLVVHGFPSSVAALRFEWAWQHPHASRRLAHVGPRLRGETAFAFHLRVLAHMLRAPPWARLPLTLRWVRPDLRQDLCLPPPPHVPLAFGPPPPQAPAPRRRAGPFDDAEPEPDQGDPGACCSLCAQTIQDEEGPLCCPHPGCLLRAHVICLAEEFLQEEPGQLLPLEGQCPCCEKSLLWGDLIWLCQMDTEKEVEDSELEEAHWTDLLET
–	binds	binds	binds	binds	binds	binds	binds	binds	MUS81 (protein, UniProt Q96NY9 1-551) MAAPVRLGRKRPLPACPNPLFVRWLTEWRDEATRSRRRTRFVFQKALRSLRRYPLPLRSGKEAKILQHFGDGLCRMLDERLQRHRTSGGDHAPDSPSGENSPAPQGRLAEVQDSSMPVPAQPKAGGSGSYWPARHSGARVILLVLYREHLNPNGHHFLTKEELLQRCAQKSPRVAPGSARPWPALRSLLHRNLVLRTHQPARYSLTPEGLELAQKLAESEGLSLLNVGIGPKEPPGEETAVPGAASAELASEAGVQQQPLELRPGEYRVLLCVDIGETRGGGHRPELLRELQRLHVTHTVRKLHVGDFVWVAQETNPRDPANPGELVLDHIVERKRLDDLCSSIIDGRFREQKFRLKRCGLERRVYLVEEHGSVHNLSLPESTLLQAVTNTQVIDGFFVKRTADIKESAAYLALLTRGLQRLYQGHTLRSRPWGTPGNPESGAMTSPNPLCSLLTFSDFNAGAIKNKAQSVREVFARQLMQVRGVSGEKAAALVDRYSTPASLLAAYDACATPKEQETLLSTIKCGRLQRNLGPALSRTLSQLYCSYGPLT
–	binds	binds	–	–	–	–	binds	binds	MUS81^D307A (protein, UniProt Q96NY9 1-551) MAAPVRLGRKRPLPACPNPLFVRWLTEWRDEATRSRRRTRFVFQKALRSLRRYPLPLRSGKEAKILQHFGDGLCRMLDERLQRHRTSGGDHAPDSPSGENSPAPQGRLAEVQDSSMPVPAQPKAGGSGSYWPARHSGARVILLVLYREHLNPNGHHFLTKEELLQRCAQKSPRVAPGSARPWPALRSLLHRNLVLRTHQPARYSLTPEGLELAQKLAESEGLSLLNVGIGPKEPPGEETAVPGAASAELASEAGVQQQPLELRPGEYRVLLCVDIGETRGGGHRPELLRELQRLHVTHTVRKLHVGAFVWVAQETNPRDPANPGELVLDHIVERKRLDDLCSSIIDGRFREQKFRLKRCGLERRVYLVEEHGSVHNLSLPESTLLQAVTNTQVIDGFFVKRTADIKESAAYLALLTRGLQRLYQGHTLRSRPWGTPGNPESGAMTSPNPLCSLLTFSDFNAGAIKNKAQSVREVFARQLMQVRGVSGEKAAALVDRYSTPASLLAAYDACATPKEQETLLSTIKCGRLQRNLGPALSRTLSQLYCSYGPLT
